From the supplement of paper PMC8728848 come the findings set out here.

This is one part of the list.

Holding throughout (assay): glycan array binding signal (z-score within array); higher = stronger binding
Holding throughout (settings): glycan notation: IUPAC condensed, linker removed

For test [1], the target named is Gal(b1-4)GlcNAc(b1-2)[Gal(b1-4)GlcNAc(b1-6)]Man(a1-6)[GlcNAc(b1-4)][Gal(b1-4)GlcNAc(b1-2)Man(a1-3)]Man(b1-4)GlcNAc(b1-4)GlcNAc. The method, boiled down:
(§1)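 Glycan array binding is given as a within-array Z-score, which can be read as non-binding when negative. The arrays, 3228 of them, came from the Consortium for Functional Glycomics database and were retained only where the protein sequence was available. Z-scores were averaged across arrays of the same protein sequence at different concentrations or buffers and across linkers.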

Test [2] addresses Gal(b1-4)GlcNAc(b1-2)[Gal(b1-4)GlcNAc(b1-6)]Man(a1-6)[GlcNAc(b1-4)][Gal(b1-4)GlcNAc(b1-2)[Gal(b1-4)GlcNAc(b1-4)]Man(a1-3)]Man(b1-4)GlcNAc(b1-4)[Fuc(a1-6)]GlcNAc. The method, boiled down: as §1
Test [3] addresses Gal(b1-4)GlcNAc(b1-3)Gal(b1-3)GalNAc. An outline of the steps:
as §1

Test [4] deals with Gal(b1-4)GlcNAc(b1-3)Gal(b1-3)GlcNAc. An outline of the steps: as §1
Test [5] addresses Gal(b1-4)GlcNAc(b1-3)Gal(b1-4)Glc. An outline of the steps: as §1
In test [6] the target is Gal(b1-4)GlcNAc(b1-3)Gal(b1-4)GlcNAc. The method, boiled down: as §1
Test [7] deals with Gal(b1-4)GlcNAc(b1-3)Gal(b1-4)GlcNAc(b1-2)Man(a1-3)[Gal(b1-4)GlcNAc(b1-3)Gal(b1-4)GlcNAc(b1-2)Man(a1-6)]Man(b1-4)GlcNAc(b1-4)GlcNAc. An outline of the steps: as §1
Test [8] has as its target Gal(b1-4)GlcNAc(b1-3)Gal(b1-4)GlcNAc(b1-2)Man(a1-3)[Gal(b1-4)GlcNAc(b1-3)Gal(b1-4)GlcNAc(b1-2)Man(a1-6)]Man(b1-4)GlcNAc(b1-4)[Fuc(a1-6)]GlcNAc. The method, boiled down: as §1
The target in test [9] is Gal(b1-4)GlcNAc(b1-3)Gal(b1-4)GlcNAc(b1-2)[Gal(b1-4)GlcNAc(b1-3)Gal(b1-4)GlcNAc(b1-6)]Man(a1-6)[Gal(b1-4)GlcNAc(b1-3)Gal(b1-4)GlcNAc(b1-2)Man(a1-3)]Man(b1-4)GlcNAc(b1-4)GlcNAc. An outline of the steps:
as §1

Test [10] addresses Gal(b1-4)GlcNAc(b1-3)Gal(b1-4)GlcNAc(b1-2)[Gal(b1-4)GlcNAc(b1-3)Gal(b1-4)GlcNAc(b1-6)]Man(a1-6)[Gal(b1-4)GlcNAc(b1-3)Gal(b1-4)GlcNAc(b1-2)Man(a1-3)]Man(b1-4)GlcNAc(b1-4)[Fuc(a1-6)]GlcNAc. The method, boiled down: as §1
Test [11] addresses Gal(b1-4)GlcNAc(b1-3)Gal(b1-4)GlcNAc(b1-3)Gal(b1-4)GlcNAc. An outline of the steps: as §1
Test [12] has as its target Gal(b1-4)GlcNAc(b1-3)Gal(b1-4)GlcNAc(b1-3)Gal(b1-4)GlcNAc(b1-2)Man(a1-3)[Gal(b1-4)GlcNAc(b1-3)Gal(b1-4)GlcNAc(b1-3)Gal(b1-4)GlcNAc(b1-2)Man(a1-6)]Man(b1-4)GlcNAc(b1-4)GlcNAc. The method, boiled down: as §1
The target of test [13] is Gal(b1-4)GlcNAc(b1-3)Gal(b1-4)GlcNAc(b1-3)Gal(b1-4)GlcNAc(b1-2)Man(a1-3)[Gal(b1-4)GlcNAc(b1-3)Gal(b1-4)GlcNAc(b1-3)Gal(b1-4)GlcNAc(b1-2)Man(a1-6)]Man(b1-4)GlcNAc(b1-4)[Fuc(a1-6)]GlcNAc. The method, boiled down:
as §1

Test [14] deals with Gal(b1-4)GlcNAc(b1-3)Gal(b1-4)GlcNAc(b1-3)Gal(b1-4)GlcNAc(b1-2)[Gal(b1-4)GlcNAc(b1-3)Gal(b1-4)GlcNAc(b1-3)Gal(b1-4)GlcNAc(b1-6)]Man(a1-6)[Gal(b1-4)GlcNAc(b1-3)Gal(b1-4)GlcNAc(b1-3)Gal(b1-4)GlcNAc(b1-2)Man(a1-3)]Man(b1-4)GlcNAc(b1-4)[Fuc(a1-6)]GlcNAc. The method, boiled down: as §1
In test [15] the target is Gal(b1-4)GlcNAc(b1-3)Gal(b1-4)GlcNAc(b1-3)Gal(b1-4)GlcNAc(b1-3)Gal(b1-4)GlcNAc(b1-2)Man(a1-3)[Gal(b1-4)GlcNAc(b1-3)Gal(b1-4)GlcNAc(b1-3)Gal(b1-4)GlcNAc(b1-3)Gal(b1-4)GlcNAc(b1-2)Man(a1-6)]Man(b1-4)GlcNAc(b1-4)GlcNAc. An outline of the steps:
as §1

The target in test [16] is Gal(b1-4)GlcNAc(b1-3)Gal(b1-4)GlcNAc(b1-3)Gal(b1-4)GlcNAc(b1-3)Gal(b1-4)GlcNAc(b1-2)Man(a1-3)[Gal(b1-4)GlcNAc(b1-3)Gal(b1-4)GlcNAc(b1-3)Gal(b1-4)GlcNAc(b1-3)Gal(b1-4)GlcNAc(b1-2)Man(a1-6)]Man(b1-4)GlcNAc(b1-4)[Fuc(a1-6)]GlcNAc. The method, boiled down:
as §1

In test [17] the target is Gal(b1-4)GlcNAc(b1-3)Gal(b1-4)GlcNAc(b1-3)Gal(b1-4)GlcNAc(b1-3)Gal(b1-4)GlcNAc(b1-2)[Gal(b1-4)GlcNAc(b1-3)Gal(b1-4)GlcNAc(b1-3)Gal(b1-4)GlcNAc(b1-3)Gal(b1-4)GlcNAc(b1-6)]Man(a1-6)[Gal(b1-4)GlcNAc(b1-3)Gal(b1-4)GlcNAc(b1-3)Gal(b1-4)GlcNAc(b1-3)Gal(b1-4)GlcNAc(b1-2)Man(a1-3)]Man(b1-4)GlcNAc(b1-4)[Fuc(a1-6)]GlcNAc. The method, boiled down:
as §1

The target in test [18] is Gal(b1-4)GlcNAc(b1-3)Gal(b1-4)GlcNAc(b1-3)Gal(b1-4)GlcNAc(b1-3)Gal(b1-4)GlcNAc(b1-3)Gal(b1-4)GlcNAc(b1-2)Man(a1-3)[Gal(b1-4)GlcNAc(b1-3)Gal(b1-4)GlcNAc(b1-3)Gal(b1-4)GlcNAc(b1-3)Gal(b1-4)GlcNAc(b1-3)Gal(b1-4)GlcNAc(b1-2)Man(a1-6)]Man(b1-4)GlcNAc(b1-4)GlcNAc. The method, boiled down: as §1
Test [19] concerns the target Gal(b1-4)GlcNAc(b1-3)Gal(b1-4)GlcNAc(b1-3)Gal(b1-4)GlcNAc(b1-3)Gal(b1-4)GlcNAc(b1-3)Gal(b1-4)GlcNAc(b1-2)Man(a1-3)[Gal(b1-4)GlcNAc(b1-3)Gal(b1-4)GlcNAc(b1-3)Gal(b1-4)GlcNAc(b1-3)Gal(b1-4)GlcNAc(b1-3)Gal(b1-4)GlcNAc(b1-2)Man(a1-6)]Man(b1-4)GlcNAc(b1-4)[Fuc(a1-6)]GlcNAc. The method, boiled down:
as §1

The target of test [20] is Gal(b1-4)GlcNAc(b1-3)Gal(b1-4)GlcNAc(b1-3)Gal(b1-4)GlcNAc(b1-3)Gal(b1-4)GlcNAc(b1-3)Gal(b1-4)GlcNAc(b1-2)[Gal(b1-4)GlcNAc(b1-3)Gal(b1-4)GlcNAc(b1-3)Gal(b1-4)GlcNAc(b1-3)Gal(b1-4)GlcNAc(b1-3)Gal(b1-4)GlcNAc(b1-6)]Man(a1-6)[Gal(b1-4)GlcNAc(b1-3)Gal(b1-4)GlcNAc(b1-3)Gal(b1-4)GlcNAc(b1-3)Gal(b1-4)GlcNAc(b1-3)Gal(b1-4)GlcNAc(b1-2)Man(a1-3)]Man(b1-4)GlcNAc(b1-4)[Fuc(a1-6)]GlcNAc. The method, boiled down: as §1

Test [21] addresses Gal(b1-4)GlcNAc(b1-3)Gal(b1-4)GlcNAc(b1-3)Gal(b1-4)GlcNAc(b1-3)Gal(b1-4)GlcNAc(b1-3)Gal(b1-4)GlcNAc(b1-3)Gal(b1-4)GlcNAc(b1-2)Man(a1-3)[Gal(b1-4)GlcNAc(b1-3)Gal(b1-4)GlcNAc(b1-3)Gal(b1-4)GlcNAc(b1-3)Gal(b1-4)GlcNAc(b1-3)Gal(b1-4)GlcNAc(b1-3)Gal(b1-4)GlcNAc(b1-2)Man(a1-6)]Man(b1-4)GlcNAc(b1-4)GlcNAc. The method, boiled down:
as §1

Test [22] deals with Gal(b1-4)GlcNAc(b1-3)Gal(b1-4)GlcNAc(b1-3)GalNAc. The method, boiled down:
as §1

Test [23] deals with Gal(b1-4)GlcNAc(b1-3)Gal(b1-4)GlcNAc(b1-3)[Gal(b1-4)GlcNAc(b1-3)Gal(b1-4)GlcNAc(b1-6)]GalNAc. The method, boiled down: as §1

B1: EULS2 M3 (Oryza sativa) (protein)
chain: MVYCRANPNYAMTARNGAVVLAPANPKDEYQHWIKDMRWSTSIKDEEGYPAFALVNKATGQAIKHSLGQSHPVRLVPYNPEVMDESVLWTESRDVGNGFRCIRMVNNIYLNFDAFHGDKYHGGVRDGTDIVLWKLCEGDSLRWKIQPYYILEQKLISEEDLNSAVDHHHHHH
On to B1, for which the “glycan array binding signal (z-score)” value is -0.564 in test [1]; -0.793 in test [2]; 0.274 in test [3]; 0.233 in test [4]; -0.287 in test [5]; -0.453 in test [6]. Besides, the “glycan array binding signal (z-score)” value in [7] was 0.116; in test [8], 0.738; in test [9], 0.556; in test [10] it was -0.127; in test [11] it was 0.251; in test [12], 0.959. The “glycan array binding signal (z-score)” value in test [13] is 0.242; in test [14], -0.144; in test [15], 0.377; in test [16] it was 1.18; in test [17], 0.461; in [18] it was 0.203. For the same molecule, the “glycan array binding signal (z-score)” value is 0.081 in test [19]; 0.063 in test [20]; 1.05 in test [21]; -0.117 in test [22]; 0.234 in [23].
